Consider 2 substances from paper PMC7898959, “Identification of an amino-terminus determinant critical for ryanodine receptor/Ca^2+ release channel function” (Cardiovascular Research, 2020).

These are yes or no findings as the source states them, for the method shown. In cells and extracts the contact can be indirect. Some entries that bind do so weakly or less than the wild type.

Assay [1] deals with NT^Δβ20–β21 (RyR2 residues 1–906, residues 335–358 removed) (human) (UniProt Q92736). Nature of the assay: cross-linking; HEK293 cell homogenate (20 μg) with glutaraldehyde (0.0025% or 260 μmol/L) for 0 min to 1 h under reducing (10 mM DTT) conditions; SDS-PAGE and blot with Ab^cMyc; tetramer formation T = ODT/(ODT + ODM) × 100 by densitometry.
Assay [2] addresses NT^Δβ31–β32 (RyR2 residues 1–906, residues 748–752 removed) (human) (UniProt Q92736). The assay is described as above.

Consider “NT^Δβ20–β21 (RyR2 residues 1–906, residues 335–358 removed) (from UniProt Q92736 1-906) (domain or fragment)”, for which the binding result in assay [1] is “binds”.
With “NT^Δβ31–β32 (RyR2 residues 1–906, residues 748–752 removed) (from UniProt Q92736 1-906) (domain or fragment)”, the binding result in assay [2] is “binds”.
